Measured data: PubChem BioAssay AID1159584 (Peter MacCallum Cancer Centre, 2016)

Purpose: 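Genes whose loss is lethal only together with E-cadherin loss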 (primary screen)
Cell system: human MCF10A breast epithelial cells, parental and CDH1-null
Reagent: siRNA against human genes
Measurement: 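Cell viability by CellTiter-Glo ATP luminescence, each line scaled to the mean of mock wells across plates, then CDH1-null over parental ratio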
Direction: CDH1-null / parental viability ratio: higher = CDH1-null cells survive relatively better than parental; CDH1-null viability vs mock: higher = more viable CDH1-null cells
Units: CDH1-null viability vs mock in fraction of mock
The deposit covers about 18,000 reagents; shown is a part drawn at random. Not all columns of the deposit are shown. Not given: the amount of reagent, the time to read-out.

For BTF3 (GeneID 689), how do the results read?
CDH1-null / parental viability ratio: 0.77; CDH1-null viability vs mock: 0.72

With HS3ST2 (GeneID 9956), what does the deposit list?
CDH1-null / parental viability ratio: 1.05; CDH1-null viability vs mock: 1.01

What is on record for OPTC (GeneID 26254)?
CDH1-null / parental viability ratio: 0.82; CDH1-null viability vs mock: 0.66

What is on record for PANK3 (GeneID 79646)?
CDH1-null / parental viability ratio: 0.99; CDH1-null viability vs mock: 1.11

How did the screen score FITM1 (GeneID 161247)?
CDH1-null / parental viability ratio: 1.03; CDH1-null viability vs mock: 0.62

With FBLN1 (GeneID 2192), what does the deposit list?
CDH1-null / parental viability ratio: 1.36; CDH1-null viability vs mock: 0.72

What did the screen give for NDUFV2 (GeneID 4729)?
CDH1-null / parental viability ratio: 0.94; CDH1-null viability vs mock: 0.74

What is on record for HOXC13 (GeneID 3229)?
CDH1-null / parental viability ratio: 1.02; CDH1-null viability vs mock: 0.56

With MIR1915HG (GeneID 399726), what was measured?
CDH1-null / parental viability ratio: 0.95; CDH1-null viability vs mock: 0.86

With DCTN2 (GeneID 10540), how do the results read?
CDH1-null / parental viability ratio: 1.2; CDH1-null viability vs mock: 0.79

With MRTFA (GeneID 57591), what does the deposit list?
CDH1-null / parental viability ratio: 1.05; CDH1-null viability vs mock: 0.97

How did the screen score TMEM258 (GeneID 746)?
CDH1-null / parental viability ratio: 1.53; CDH1-null viability vs mock: 0.55

With CPNE1 (GeneID 8904), what does the deposit list?
CDH1-null / parental viability ratio: 0.85; CDH1-null viability vs mock: 0.66

Which result is listed for INO80C (GeneID 125476)?
CDH1-null / parental viability ratio: 1.3; CDH1-null viability vs mock: 0.6

With CRIPT (GeneID 9419), what does the deposit list?
CDH1-null / parental viability ratio: 0.93; CDH1-null viability vs mock: 0.95

With PTX3 (GeneID 5806), what does the deposit list?
CDH1-null / parental viability ratio: 1.15; CDH1-null viability vs mock: 1.08

For PRSS16 (GeneID 10279), what was measured?
CDH1-null / parental viability ratio: 1.14; CDH1-null viability vs mock: 1

With TMC4 (GeneID 147798), how do the results read?
CDH1-null / parental viability ratio: 1.47; CDH1-null viability vs mock: 1

How did the screen score WIF1 (GeneID 11197)?
CDH1-null / parental viability ratio: 0.93; CDH1-null viability vs mock: 0.9

With SEC24D (GeneID 9871), how do the results read?
CDH1-null / parental viability ratio: 0.98; CDH1-null viability vs mock: 0.8

How did the screen score B3GALT4 (GeneID 8705)?
CDH1-null / parental viability ratio: 0.91; CDH1-null viability vs mock: 0.69

With GATA5 (GeneID 140628), what does the deposit list?
CDH1-null / parental viability ratio: 0.78; CDH1-null viability vs mock: 0.67

What did the screen give for ASPA (GeneID 443)?
CDH1-null / parental viability ratio: 1; CDH1-null viability vs mock: 0.86

How did the screen score PSG3 (GeneID 5671)?
CDH1-null / parental viability ratio: 0.94; CDH1-null viability vs mock: 0.82

With SCG2 (GeneID 7857), how do the results read?
CDH1-null / parental viability ratio: 1.04; CDH1-null viability vs mock: 0.83

What did the screen give for NALF2 (GeneID 27112)?
CDH1-null / parental viability ratio: 1.02; CDH1-null viability vs mock: 0.82

Which result is listed for TMEM187 (GeneID 8269)?
CDH1-null / parental viability ratio: 1.39; CDH1-null viability vs mock: 0.53

For DHX58 (GeneID 79132), how do the results read?
CDH1-null / parental viability ratio: 0.86; CDH1-null viability vs mock: 0.57

Which result is listed for EZH1 (GeneID 2145)?
CDH1-null / parental viability ratio: 0.94; CDH1-null viability vs mock: 0.92

What did the screen give for KIR3DL1 (GeneID 3811)?
CDH1-null / parental viability ratio: 1.24; CDH1-null viability vs mock: 0.82

Which result is listed for NIPAL2 (GeneID 79815)?
CDH1-null / parental viability ratio: 0.81; CDH1-null viability vs mock: 0.73

For SAPCD1 (GeneID 401251), how do the results read?
CDH1-null / parental viability ratio: 1.19; CDH1-null viability vs mock: 0.74

What is on record for FOXK2 (GeneID 3607)?
CDH1-null / parental viability ratio: 0.97; CDH1-null viability vs mock: 0.85

How did the screen score INVS (GeneID 27130)?
CDH1-null / parental viability ratio: 1.21; CDH1-null viability vs mock: 0.87

With TBC1D3C (GeneID 414060), what does the deposit list?
CDH1-null / parental viability ratio: 1.01; CDH1-null viability vs mock: 0.82

4 entries already listed, arranged by “CDH1-null viability vs mock”, low to high.
SAPCD1 (GeneID 401251) — CDH1-null / parental viability ratio: 1.19; CDH1-null viability vs mock: 0.74
TBC1D3C (GeneID 414060) — CDH1-null / parental viability ratio: 1.01; CDH1-null viability vs mock: 0.82
FOXK2 (GeneID 3607) — CDH1-null / parental viability ratio: 0.97; CDH1-null viability vs mock: 0.85
INVS (GeneID 27130) — CDH1-null / parental viability ratio: 1.21; CDH1-null viability vs mock: 0.87
